Patent US8841257B2, “Inhibitors of STAT3 and uses thereof” (Board of Regents, The University of Texas System, priority 2009, dated 2014)
Some of these results come from one statement about several compounds together.

Amino acid sequences for entries named in this document (tags omitted).
UniProt P40763, whole entry: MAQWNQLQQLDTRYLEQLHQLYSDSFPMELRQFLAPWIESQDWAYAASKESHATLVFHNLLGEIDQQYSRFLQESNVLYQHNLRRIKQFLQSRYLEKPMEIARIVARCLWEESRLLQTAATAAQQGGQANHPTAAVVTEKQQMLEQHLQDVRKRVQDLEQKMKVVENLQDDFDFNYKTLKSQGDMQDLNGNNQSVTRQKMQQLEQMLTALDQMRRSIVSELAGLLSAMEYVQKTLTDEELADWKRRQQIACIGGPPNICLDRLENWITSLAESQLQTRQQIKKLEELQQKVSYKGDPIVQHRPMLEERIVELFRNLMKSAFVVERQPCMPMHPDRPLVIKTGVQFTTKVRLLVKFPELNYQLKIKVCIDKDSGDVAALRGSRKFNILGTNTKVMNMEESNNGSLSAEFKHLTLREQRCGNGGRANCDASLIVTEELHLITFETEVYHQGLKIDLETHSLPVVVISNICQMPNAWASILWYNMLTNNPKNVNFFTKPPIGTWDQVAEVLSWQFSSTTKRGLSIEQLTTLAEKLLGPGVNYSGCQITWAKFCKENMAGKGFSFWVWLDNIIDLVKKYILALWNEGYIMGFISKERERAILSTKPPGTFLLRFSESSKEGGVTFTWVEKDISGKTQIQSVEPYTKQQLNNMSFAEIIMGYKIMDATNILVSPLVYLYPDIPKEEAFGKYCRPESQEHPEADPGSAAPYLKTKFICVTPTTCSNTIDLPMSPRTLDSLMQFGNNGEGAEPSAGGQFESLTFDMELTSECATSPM

Target: STAT3 (Homo sapiens, UniProt P40763)
Test: Inhibition of STAT3 phosphorylation in BT20 breast tumor cells (western blot)
Type: cell-based
Parameters: endogenous in cells; host or cells: BT20 breast tumor cells
Conditions: BT20 time course
Procedure: Inhibition of STAT3 in BT20 Breast Tumor Cells. General procedure: 35 mm petri dishes were plated with 300,000 BT20 cells in 2 mL RPMI1640 media containing 10% FBS, […], streptomycin, and glutamine. Prodrugs were dissolved in DMSO and were added to the cells with fresh media at varying concentrations. After 2 h the cells were washed with ice cold phosphate buffered saline. Washed cells were treated with lysis buffer (50 mM Hepes, pH 7.4, 150 mM NaCl, 1.5 mM MgCl2, 1 mM EGTA, 100 mM NaF, 10 mM sodium pyrophosphate, 10% glycerol, 1% Triton X-100, 1 mM PMSF, 1 mM Na3VO4, 10 μg/mL leupeptin and 10 μg/mL aprotinin). Cell-free detergent extracts were centrifuged at 15,000 rpm in a microcentriguge for 30 min at 4° C. and the protein concentrations of the supernatants determined. Aliquots containing 12 μg of protein were separated on 8% SDS-PAGE and were transferred to PVDF filters. The filters were blocked with 5% bovine serum albumin and were probed with pStat3^Y705 antibody followed by secondary antibody, whose signal was detected with an enhanced chemiluminescence kit (ECL, Amersham, Chicago, Ill.). […]
Because DMSO is toxic, other formulations were evaluated for potential use in animal models. […] At two hours, cells were lysed and pSTAT3 levels were determined by Western Blot (FIG. 3). […] After two hours, cells were lysed and pSTAT3 levels determined by Western blot. […]

## C/C(=C\C(=O)N[C@H]1CCc2cccc3c2N(C1=O)[C@H](C(=O)N[C@H](C)CCC(N)=O)C3)c1ccc(C(F)(F)P(=O)(OCOC(=O)C(C)(C)C)OCOC(=O)C(C)(C)C)cc1 [Example 1, (2E)-3-[4-[[bis[(2,2-dimethyl-1-oxopropoxy)methoxy]phosphinyl]difluoromethyl]phenyl]-but-2-enoyl-Haic-(R)-4-aminopentamide]
  time up to which STAT3 phosphorylation is inhibited: up to 8 h
